These are yes or no findings as the source states them, for the method shown. In cells and extracts the contact can be indirect. Binding can be weak; no strength is given.
T1: KGD1 (yeast (endogenous in mitochondria of strain YPH499)) (UniProt P20967)
T1 sequence: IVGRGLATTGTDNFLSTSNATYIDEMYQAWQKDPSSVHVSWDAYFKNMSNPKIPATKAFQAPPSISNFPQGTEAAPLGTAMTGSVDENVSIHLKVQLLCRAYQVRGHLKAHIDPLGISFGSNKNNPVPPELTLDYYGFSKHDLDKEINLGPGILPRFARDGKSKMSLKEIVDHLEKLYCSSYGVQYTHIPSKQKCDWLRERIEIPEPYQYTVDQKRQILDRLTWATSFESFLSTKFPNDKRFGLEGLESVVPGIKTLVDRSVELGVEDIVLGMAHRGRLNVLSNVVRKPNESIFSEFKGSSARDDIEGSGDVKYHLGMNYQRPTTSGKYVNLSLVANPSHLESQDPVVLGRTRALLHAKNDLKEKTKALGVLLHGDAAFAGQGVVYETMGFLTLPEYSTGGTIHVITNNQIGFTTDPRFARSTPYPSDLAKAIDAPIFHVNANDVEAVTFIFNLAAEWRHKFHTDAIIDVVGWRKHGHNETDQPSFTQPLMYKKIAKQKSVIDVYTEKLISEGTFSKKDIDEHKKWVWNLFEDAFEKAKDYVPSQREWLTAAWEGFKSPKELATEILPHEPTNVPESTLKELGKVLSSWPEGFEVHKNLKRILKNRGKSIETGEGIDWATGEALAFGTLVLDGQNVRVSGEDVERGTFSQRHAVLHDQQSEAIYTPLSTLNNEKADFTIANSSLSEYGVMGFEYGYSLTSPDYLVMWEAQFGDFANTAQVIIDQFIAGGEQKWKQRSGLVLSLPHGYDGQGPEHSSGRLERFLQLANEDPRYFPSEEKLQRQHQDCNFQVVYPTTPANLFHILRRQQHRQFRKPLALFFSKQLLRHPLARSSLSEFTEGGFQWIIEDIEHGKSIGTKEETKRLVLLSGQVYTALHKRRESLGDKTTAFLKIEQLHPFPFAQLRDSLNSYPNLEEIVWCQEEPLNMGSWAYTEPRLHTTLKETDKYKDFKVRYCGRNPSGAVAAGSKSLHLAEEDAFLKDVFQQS

The chains behind the UniProt entries cited, without tags or fusion partners. Where a name states a change or a piece, a line headed by the entry shows the natural chain unless it says otherwise.
UniProt Q12335: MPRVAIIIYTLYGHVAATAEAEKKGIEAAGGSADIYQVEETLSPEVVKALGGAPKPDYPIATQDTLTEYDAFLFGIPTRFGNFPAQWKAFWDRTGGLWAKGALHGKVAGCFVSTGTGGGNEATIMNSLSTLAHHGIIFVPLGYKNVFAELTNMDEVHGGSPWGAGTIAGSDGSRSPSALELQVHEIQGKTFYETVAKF


Experiments:
[1] = molecular target: T1, KGD1 (yeast (endogenous in mitochondria of strain YPH499)); experiment: cross-linking; intact purified yeast mitochondria (5 mg/ml, isotonic buffer: 250 mM sucrose, 1 mM EDTA, 10 mM MOPS-KOH, pH 7.2) crosslinked in organello with 2 mM CBDPS-H8/D8, 21 °C 10 min then on ice 110 min; Lys-Lys inter-protein crosslinked peptides enriched (SCX, avidin) and identified by LC-MS/MS, FDR 2%
[2] = molecular target: PST2 (yeast (endogenous in mitochondria of strain YPH499)) (UniProt Q12335); experiment: as above

binding [1]	binding [2]	Molecule
binds	–	KGD2
–	binds	YCP4 (protein, UniProt P25349 1-247) MVKIAIITYSTYGHIDVLAQAVKKGVEAAGGKADIYRVEETLPDEVLTKMNAPQKPEDIPVATEKTLLEYDAFLFGVPTRFGNLPAQWSAFWDKTGGLWAKGSLNGKAAGIFVSTSSYGGGQESTVKACLSYLAHHGIIFLPLGYKNSFAELASIEEVHGGSPWGAGTLAGPDGSRTASPLELRIAEIQGKTFYETAKKLFPAKEAKPSTEKKTTTSDAAKRQTKPAAATTAEKKEDKGLLSCCTVM

— paper PMC7124466
